Data taken from the supplement of paper PMC10849652.
The other results are listed elsewhere or left out.

Amino acid sequences for entries named in this document (tags omitted). A change or cut given only in a name is not applied to a line headed by its entry.
UniProt P20936: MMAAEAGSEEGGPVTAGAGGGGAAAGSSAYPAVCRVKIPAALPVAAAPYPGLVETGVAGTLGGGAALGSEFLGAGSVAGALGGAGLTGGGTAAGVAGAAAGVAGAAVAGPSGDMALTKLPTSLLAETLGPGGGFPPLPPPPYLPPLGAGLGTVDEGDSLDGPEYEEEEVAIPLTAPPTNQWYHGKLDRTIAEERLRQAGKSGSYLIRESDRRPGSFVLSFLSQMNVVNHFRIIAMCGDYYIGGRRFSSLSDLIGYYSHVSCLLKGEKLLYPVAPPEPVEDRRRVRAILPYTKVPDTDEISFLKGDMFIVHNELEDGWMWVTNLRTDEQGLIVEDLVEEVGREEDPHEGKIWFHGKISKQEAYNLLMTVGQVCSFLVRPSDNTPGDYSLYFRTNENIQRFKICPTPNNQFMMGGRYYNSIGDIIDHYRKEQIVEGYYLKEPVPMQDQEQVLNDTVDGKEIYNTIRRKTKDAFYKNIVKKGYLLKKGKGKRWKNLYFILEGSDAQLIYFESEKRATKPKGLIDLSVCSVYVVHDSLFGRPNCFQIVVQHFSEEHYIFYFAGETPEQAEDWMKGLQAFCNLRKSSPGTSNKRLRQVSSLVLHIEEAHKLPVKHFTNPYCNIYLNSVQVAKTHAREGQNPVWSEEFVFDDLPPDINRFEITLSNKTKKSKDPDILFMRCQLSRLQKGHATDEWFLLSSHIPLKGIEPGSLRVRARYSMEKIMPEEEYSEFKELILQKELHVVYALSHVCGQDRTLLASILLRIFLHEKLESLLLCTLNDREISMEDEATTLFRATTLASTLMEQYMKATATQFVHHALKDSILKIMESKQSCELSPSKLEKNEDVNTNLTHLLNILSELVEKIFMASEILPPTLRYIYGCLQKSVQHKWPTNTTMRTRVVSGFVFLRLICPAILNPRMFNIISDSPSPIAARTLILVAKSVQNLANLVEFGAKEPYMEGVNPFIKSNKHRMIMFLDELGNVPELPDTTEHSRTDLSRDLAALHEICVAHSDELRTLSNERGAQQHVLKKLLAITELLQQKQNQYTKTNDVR
UniProt Q86X10: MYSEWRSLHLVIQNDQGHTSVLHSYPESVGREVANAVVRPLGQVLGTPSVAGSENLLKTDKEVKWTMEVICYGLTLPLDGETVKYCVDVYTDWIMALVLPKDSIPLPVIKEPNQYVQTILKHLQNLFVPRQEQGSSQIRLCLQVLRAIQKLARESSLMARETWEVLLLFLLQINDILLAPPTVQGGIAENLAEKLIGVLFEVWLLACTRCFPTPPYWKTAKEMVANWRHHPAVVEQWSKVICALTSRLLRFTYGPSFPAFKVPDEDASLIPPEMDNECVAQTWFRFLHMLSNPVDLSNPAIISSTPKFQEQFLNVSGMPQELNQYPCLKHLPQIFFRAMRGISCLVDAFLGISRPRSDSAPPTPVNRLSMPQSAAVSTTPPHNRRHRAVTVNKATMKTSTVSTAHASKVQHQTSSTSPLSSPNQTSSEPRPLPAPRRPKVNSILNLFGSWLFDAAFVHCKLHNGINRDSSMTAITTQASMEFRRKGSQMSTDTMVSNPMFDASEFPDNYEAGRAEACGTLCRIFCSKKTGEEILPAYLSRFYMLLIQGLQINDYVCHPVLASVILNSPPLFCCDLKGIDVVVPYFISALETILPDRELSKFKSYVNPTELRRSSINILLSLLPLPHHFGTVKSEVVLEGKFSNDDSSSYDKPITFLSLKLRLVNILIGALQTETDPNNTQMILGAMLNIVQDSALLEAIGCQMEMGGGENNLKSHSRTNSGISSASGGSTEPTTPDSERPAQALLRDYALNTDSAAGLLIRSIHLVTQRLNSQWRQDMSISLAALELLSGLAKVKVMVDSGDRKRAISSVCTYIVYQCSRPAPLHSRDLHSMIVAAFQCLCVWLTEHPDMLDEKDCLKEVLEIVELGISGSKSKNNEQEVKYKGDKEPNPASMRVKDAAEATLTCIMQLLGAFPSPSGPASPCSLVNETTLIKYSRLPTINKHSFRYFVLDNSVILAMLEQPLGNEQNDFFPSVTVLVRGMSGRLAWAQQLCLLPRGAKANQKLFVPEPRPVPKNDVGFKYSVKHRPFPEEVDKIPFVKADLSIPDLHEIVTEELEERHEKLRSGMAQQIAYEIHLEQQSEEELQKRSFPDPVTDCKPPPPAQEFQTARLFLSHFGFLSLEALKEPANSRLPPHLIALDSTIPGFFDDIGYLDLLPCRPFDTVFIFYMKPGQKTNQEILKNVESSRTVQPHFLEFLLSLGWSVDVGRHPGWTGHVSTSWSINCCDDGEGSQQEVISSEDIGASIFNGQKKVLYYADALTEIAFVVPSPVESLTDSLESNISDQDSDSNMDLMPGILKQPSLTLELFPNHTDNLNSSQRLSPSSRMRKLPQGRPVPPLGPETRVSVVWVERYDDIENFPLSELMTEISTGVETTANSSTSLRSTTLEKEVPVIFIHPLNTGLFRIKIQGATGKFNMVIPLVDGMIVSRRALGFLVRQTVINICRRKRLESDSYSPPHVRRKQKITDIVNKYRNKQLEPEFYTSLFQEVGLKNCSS
UniProt Q15311: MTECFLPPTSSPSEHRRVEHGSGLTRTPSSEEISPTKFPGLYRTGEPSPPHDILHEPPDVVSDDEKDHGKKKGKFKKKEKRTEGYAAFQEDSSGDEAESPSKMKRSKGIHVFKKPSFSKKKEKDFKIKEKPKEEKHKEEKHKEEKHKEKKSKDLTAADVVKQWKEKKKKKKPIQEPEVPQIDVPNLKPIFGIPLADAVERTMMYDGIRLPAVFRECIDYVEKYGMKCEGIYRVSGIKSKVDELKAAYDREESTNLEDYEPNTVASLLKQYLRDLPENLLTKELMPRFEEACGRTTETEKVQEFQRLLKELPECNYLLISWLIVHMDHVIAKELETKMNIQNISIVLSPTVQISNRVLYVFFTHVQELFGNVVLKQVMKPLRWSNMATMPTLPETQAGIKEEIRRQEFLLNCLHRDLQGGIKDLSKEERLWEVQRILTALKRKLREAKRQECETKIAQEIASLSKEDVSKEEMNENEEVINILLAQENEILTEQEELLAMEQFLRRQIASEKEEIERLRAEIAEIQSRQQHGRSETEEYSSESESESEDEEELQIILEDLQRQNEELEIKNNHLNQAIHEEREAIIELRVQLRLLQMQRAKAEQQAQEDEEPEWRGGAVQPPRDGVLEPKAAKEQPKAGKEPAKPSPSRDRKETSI
UniProt Q8WWW0: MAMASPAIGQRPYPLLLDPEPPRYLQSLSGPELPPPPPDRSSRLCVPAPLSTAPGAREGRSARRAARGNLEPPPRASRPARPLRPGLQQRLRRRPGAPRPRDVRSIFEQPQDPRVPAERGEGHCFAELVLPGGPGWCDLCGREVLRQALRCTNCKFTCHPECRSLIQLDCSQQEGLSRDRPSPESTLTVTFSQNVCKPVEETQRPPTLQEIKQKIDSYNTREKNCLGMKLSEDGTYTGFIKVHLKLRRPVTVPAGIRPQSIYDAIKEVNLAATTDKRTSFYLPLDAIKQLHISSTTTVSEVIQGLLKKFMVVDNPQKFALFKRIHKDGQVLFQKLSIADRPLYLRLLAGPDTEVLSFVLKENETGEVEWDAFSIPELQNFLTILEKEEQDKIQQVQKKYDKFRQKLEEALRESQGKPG
UniProt Q8TEU7: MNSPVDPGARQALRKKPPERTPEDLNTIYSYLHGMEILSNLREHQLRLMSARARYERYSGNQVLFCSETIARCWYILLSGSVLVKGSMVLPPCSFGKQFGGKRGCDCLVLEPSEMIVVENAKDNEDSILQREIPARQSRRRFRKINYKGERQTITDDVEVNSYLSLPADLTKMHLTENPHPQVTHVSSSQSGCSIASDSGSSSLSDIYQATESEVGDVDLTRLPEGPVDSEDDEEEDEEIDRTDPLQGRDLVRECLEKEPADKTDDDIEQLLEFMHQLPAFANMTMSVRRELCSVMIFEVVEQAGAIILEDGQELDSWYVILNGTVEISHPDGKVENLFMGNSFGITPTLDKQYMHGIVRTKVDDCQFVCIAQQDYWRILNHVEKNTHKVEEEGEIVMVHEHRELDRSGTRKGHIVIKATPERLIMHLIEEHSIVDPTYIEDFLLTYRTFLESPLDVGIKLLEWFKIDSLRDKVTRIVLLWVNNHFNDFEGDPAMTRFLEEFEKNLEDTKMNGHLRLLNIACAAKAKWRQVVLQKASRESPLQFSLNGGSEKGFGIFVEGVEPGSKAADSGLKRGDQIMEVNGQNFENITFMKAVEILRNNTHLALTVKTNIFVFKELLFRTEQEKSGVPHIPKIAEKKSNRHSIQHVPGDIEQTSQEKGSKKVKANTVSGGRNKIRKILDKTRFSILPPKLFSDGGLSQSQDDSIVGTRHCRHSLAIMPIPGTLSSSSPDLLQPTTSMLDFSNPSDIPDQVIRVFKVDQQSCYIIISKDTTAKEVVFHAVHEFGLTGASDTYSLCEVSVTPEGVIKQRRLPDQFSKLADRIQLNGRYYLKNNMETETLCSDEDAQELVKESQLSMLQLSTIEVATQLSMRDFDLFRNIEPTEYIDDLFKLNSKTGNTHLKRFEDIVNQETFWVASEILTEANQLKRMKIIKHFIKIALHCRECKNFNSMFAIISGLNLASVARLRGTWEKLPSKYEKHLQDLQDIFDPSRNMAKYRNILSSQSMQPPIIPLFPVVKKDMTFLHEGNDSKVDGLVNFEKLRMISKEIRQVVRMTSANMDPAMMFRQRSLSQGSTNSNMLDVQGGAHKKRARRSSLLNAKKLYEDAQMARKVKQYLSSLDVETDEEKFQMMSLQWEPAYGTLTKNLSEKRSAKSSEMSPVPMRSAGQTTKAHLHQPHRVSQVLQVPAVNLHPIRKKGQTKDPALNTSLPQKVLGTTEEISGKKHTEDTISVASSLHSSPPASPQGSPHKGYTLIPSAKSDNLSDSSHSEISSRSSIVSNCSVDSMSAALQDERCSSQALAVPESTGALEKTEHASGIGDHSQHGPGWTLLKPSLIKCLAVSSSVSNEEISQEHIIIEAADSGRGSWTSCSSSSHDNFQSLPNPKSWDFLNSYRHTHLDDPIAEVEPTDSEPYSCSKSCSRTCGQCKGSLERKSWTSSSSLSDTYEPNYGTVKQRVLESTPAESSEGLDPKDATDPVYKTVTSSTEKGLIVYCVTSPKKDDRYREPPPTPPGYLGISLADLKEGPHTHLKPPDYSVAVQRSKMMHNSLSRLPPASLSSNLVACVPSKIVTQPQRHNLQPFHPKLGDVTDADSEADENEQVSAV
UniProt Q13636: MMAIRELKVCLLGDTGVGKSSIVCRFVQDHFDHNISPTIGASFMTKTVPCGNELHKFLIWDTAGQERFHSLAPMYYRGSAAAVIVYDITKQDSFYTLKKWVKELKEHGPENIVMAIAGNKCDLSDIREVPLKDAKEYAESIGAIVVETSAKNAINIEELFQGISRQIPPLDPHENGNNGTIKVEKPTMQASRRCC
UniProt Q6VN20, whole entry, looked up: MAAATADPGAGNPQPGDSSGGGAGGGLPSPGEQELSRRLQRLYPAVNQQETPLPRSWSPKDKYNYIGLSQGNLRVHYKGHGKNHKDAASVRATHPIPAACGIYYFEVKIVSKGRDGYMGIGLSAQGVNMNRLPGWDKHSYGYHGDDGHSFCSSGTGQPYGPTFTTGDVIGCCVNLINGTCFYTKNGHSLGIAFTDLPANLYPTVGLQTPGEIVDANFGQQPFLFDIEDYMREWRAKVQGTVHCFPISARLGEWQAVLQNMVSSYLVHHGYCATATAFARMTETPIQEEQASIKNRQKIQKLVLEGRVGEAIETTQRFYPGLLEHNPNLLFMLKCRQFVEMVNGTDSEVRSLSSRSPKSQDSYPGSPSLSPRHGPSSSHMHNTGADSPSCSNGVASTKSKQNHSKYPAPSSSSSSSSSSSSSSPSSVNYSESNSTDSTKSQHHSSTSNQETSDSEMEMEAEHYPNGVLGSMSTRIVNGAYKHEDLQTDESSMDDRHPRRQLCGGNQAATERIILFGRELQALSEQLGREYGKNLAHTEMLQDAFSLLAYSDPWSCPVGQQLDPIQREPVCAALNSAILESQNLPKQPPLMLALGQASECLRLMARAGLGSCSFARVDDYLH
UniProt Q53S08: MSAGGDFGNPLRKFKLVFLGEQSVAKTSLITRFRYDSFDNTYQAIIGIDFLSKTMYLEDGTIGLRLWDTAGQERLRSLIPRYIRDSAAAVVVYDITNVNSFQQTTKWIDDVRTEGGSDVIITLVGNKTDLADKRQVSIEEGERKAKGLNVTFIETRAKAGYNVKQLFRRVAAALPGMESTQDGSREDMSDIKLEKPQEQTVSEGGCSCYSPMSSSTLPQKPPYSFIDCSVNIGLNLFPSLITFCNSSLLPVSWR
UniProt P61006: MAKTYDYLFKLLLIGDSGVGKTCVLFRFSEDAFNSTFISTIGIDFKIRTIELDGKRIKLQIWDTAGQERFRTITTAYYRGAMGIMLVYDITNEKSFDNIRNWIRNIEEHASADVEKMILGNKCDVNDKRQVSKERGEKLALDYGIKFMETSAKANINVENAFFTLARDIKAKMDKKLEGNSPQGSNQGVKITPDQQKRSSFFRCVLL

compound: Cc1cc(Nc2cc(N3CCN(C)CC3)nc(Sc3ccc(NC(=O)C4CC4)cc3)n2)n[nH]1 [tozasertib]; test: log2 fold change, soluble protein after heating vs DMSO (PISA); higher = thermal stabilisation; K562 cells, 10 uM, 30 min; active = over 0.2 and 3.5 SD of the protein, either way, in both replicates (recomputed)
Outline: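 Thermal stability values are relative to control samples and come from duplicates. They are expressed as log2 fold changes. For measurement, K562 cells (2×10^6 cells/mL) received 10 μM compound for 30 min, and aliquots were heated for 3 min over 48°C-58°C, pooled, and extracted at 4°C in PBS with 0.5% NP-40. Soluble protein, the supernatant after 21,000xg for 90 min, was quantified by TMTpro 16plex LC-MS/MS with equalised channel sums.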

log2 fold change, inactive:
RASA1 (UniProt P20936) 0.251
RAP1B (UniProt F5GZG1) 0.025
RAB11A (UniProt P62491) -0.076
RALGAPB (UniProt Q86X10) -0.006
RALGAPA1 isoform 6 (UniProt Q6GYQ0) -0.026
RALBP1 (UniProt Q15311) -0.195
RACK1 (UniProt D6RF23) -0.188
RAP1A (UniProt P62834) 0.06
RASSF5 (UniProt Q8WWW0) -0.026
RAPGEF6 isoform 4 (UniProt Q8TEU7) -0.151
RAB31 (UniProt Q13636) 0.025
RAD9A (UniProt Q99638) 0.055
RAD51AP1 (UniProt Q96B01) -0.019
RANBP10 (UniProt Q6VN20) 0.094
RACGAP1 (UniProt Q9H0H5) -0.019
RAB6D (UniProt Q53S08) -0.144
RAN (UniProt P62826) -0.04
RAB3GAP1 (UniProt Q15042) 0.049
RAPGEF2, A0A2R8YGD3 -0.167
RANGAP1 (UniProt P46060) 0.053
RAB8A isoform 2 (UniProt P61006) -0.004

Pulled one by one from above, two records:
log2 fold change, inactive:
RANBP10 (UniProt Q6VN20) 0.094
RAN (UniProt P62826) -0.04
